Patent publication US10617695B2, “Ophthalmic compositions containing alcaftadine” (Vistakon Pharmaceuticals, LLC, priority 2006, dated 2020)
Some entries share one result that the patent states for a list of compounds. For at least one compound, name, drawing or mass did not settle the structure.

Sequences of proteins named here, by UniProt entry; tags and fusion partners are left off. A change or cut given only in a name is not applied to a line headed by its entry.
UniProt Q9H3N8: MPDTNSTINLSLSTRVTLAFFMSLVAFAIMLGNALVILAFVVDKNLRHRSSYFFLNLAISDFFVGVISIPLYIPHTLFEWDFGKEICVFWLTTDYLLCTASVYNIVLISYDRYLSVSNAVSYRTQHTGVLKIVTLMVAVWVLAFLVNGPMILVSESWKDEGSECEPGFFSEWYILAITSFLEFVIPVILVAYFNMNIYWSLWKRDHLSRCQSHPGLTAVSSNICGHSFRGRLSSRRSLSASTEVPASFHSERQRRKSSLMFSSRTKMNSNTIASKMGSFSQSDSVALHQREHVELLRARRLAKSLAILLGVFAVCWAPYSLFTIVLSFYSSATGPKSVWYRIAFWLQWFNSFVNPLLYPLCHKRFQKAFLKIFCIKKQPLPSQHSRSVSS

Biological target: T1, human histamine H4 receptor (Homo sapiens, UniProt Q9H3N8)
T1 construct: express a reporter gene construct and the human H4 receptor full-coding region; expressed in transfected cells; host or cells: SK-N-MC cells with a CRE-beta-galactosidase reporter
Test: H4 receptor agonist assay: inhibition of forskolin-induced cAMP (reporter gene) in transfected SK-N-MC cells
Format: cell-based
Conditions: absence of histamine; read-out: agonist activity: inhibition of forskolin-induced cAMP levels (highest concentration without agonism)
Procedure: Alcaftadine and 6,11-dihydro-11-(1-methyl-4-piperdinylidene)-5H-imidazo[2,1-b][3]benazepine-3-carboxylic acid (CAS #147083-93-0) were prepared at 10 mM in 100% dimethylsulfoxide (DMSO) for the binding assays and at 10 mM in Na/K phosphate buffer, pH 7.0, for the cellular assays. Cell pellets from SK-N-MC cells transfected with human H4 receptor were homogenized in 20 mM Tris-HCl/0.5 mM ethylendediaminetetraacetic acid (EDTA) pH 8.0 (TE buffer). Supernatants collected after centrifugation at 800 g were recentrifuged at 30,000 g for 30 min. Pellets were re-homogenized in TE buffer. […] Non-specific binding was defined with 100 μM cold histamine. […] Seven concentrations of compound were tested spanning 10^−11 to 10^−5 M with each concentration being run in triplicate. […] This assay was run twice and the results are reported as the average of the two runs. SK-N-MC cell lines were created that express a reporter gene construct and the human H4 receptor full-coding region. […] Color was quantitated on a microplate reader at absorbance 570 nm. […]
To test whether alcaftadine or 6,11-dihydro-11-(1-methyl-4-piperdinylidene)-5H-imidazo[2,1-b][3]benazepine-3-carboxylic acid (CAS #147083-93-0) were H4 receptor agonists, functional assays were carried out in SK-N-MC cells transfected with the human histamine H4 receptor. The ability of the compounds to inhibit forskolin-induced cAMP increases was assessed.

**Q.** Which EC50 does the source give for `CN1CCC(=C2c3ccccc3CCn3c(C=O)cnc32)CC1` [Alcaftadine, 6,11-dihydro-11-(1-methyl-4-piperidinylidene)-5H-imidazo[2,1-b][3]benzazepine-3-carboxaldehyde] here?
**A.** > 100 µM
